This assay addresses MBP-AP3 (appendage domain of rat AP-3 delta) (rat). As to the kind of experiment: pull-down.

Numbering of substitutions follows the chain as printed. Numbers in names are those of the source. Results are given in words; binding and its absence hold for the method and conditions named. Binding can be weak; no strength is given. Tags and fused reporters may be left off the sequences shown.

B1: HIS-6 VPS41^WT (protein, UniProt P49754-1 1-854)
chain: MAEAEEQETGSLEESTDESEEEESEEEPKLKYERLSNGVTEILQKDAASCMTVHDKFLALGTHYGKVYLLDVQGNITQKFDVSPVKINQISLDESGEHMGVCSEDGKVQVFGLYSGEEFHETFDCPIKIIAVHPHFVRSSCKQFVTGGKKLLLFERSWMNRWKSAVLHEGEGNIRSVKWRGHLIAWANNMGVKIFDIISKQRITNVPRDDISLRPDMYPCSLCWKDNVTLIIGWGTSVKVCSVKERHASEMRDLPSRYVEIVSQFETEFYISGLAPLCDQLVVLSYVKEISEKTEREYCARPRLDIIQPLSETCEEISSDALTVRGFQENECRDYHLEYSEGESLFYIVSPRDVVVAKERDQDDHIDWLLEKKKYEEALMAAEISQKNIKRHKILDIGLAYINHLVERGDYDIAARKCQKILGKNAALWEYEVYKFKEIGQLKAISPYLPRGDPVLKPLIYEMILHEFLESDYEGFATLIREWPGDLYNNSVIVQAVRDHLKKDSQNKTLLKTLAELYTYDKNYGNALEIYLTLRHKDVFQLIHKHNLFSSIKDKIVLLMDFDSEKAVDMLLDNEDKISIKKVVEELEDRPELQHVYLHKLFKRDHHKGQRYHEKQISLYAEYDRPNLLPFLRDSTHCPLEKALEICQQRNFVEETVYLLSRMGNSRSALKMIMEELHDVDKAIEFAKEQDDGELWEDLILYSIDKPPFITGLLNNIGTHVDPILLIHRIKEGMEIPNLRDSLVKILQDYNLQILLREGCKKILVADSLSLLKKMHRTQMKGVLVDEENICESCLSPILPSDAAKPFSVVVFHCRHMFHKECLPMPSMNSAAQFCNICSAKNRGPGSAILEMKK
As for B1, the binding entry is “binds”.

B2: HIS-6 VPS41^S285P (protein, UniProt P49754-1 1-854)
chain: B1 chain with S285P
With B2, the binding entry is given as “binds”.

The values are drawn from publication doi:10.1101/2019.12.18.867333.
